# Test results from PubChem BioAssay AID587 (National Center for Advancing Translational Sciences (NCATS), 2007).
# The campaign covered roughly 59,000 compounds. About 35 (0.06%) were called active. This list was built around the results that the source calls inconclusive (neither active nor inactive); the mix of calls is not that of the screen. Rule as the data show it: active = max dye-equivalent concentration above about 10 nM; inconclusive = between about 1.1 nM and that limit; inactive = weaker than that.
# Test: qHTS Assay for Spectroscopic Profiling in Texas Red Spectral Region
# Conditions: Compound fluorescence, Texas Red channel, 547/618 nm; active compounds read high
# Outline: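 qHTS profiling of intrinsic compound fluorescence; 100 mM Tris pH 8.0; 15 min RT; ex 547 / em 618 nm; response expressed as Texas Red dye-equivalent concentration from six-point plate standard.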
row,SMILES,max dye-equivalent concentration
1,NCCCCC(=O)O,inconclusive: 1.1 nM
2,O=C(O)c1cccnc1SCCc1ccccc1,inconclusive: 1.8 nM
3,Cc1cc2oc(=O)cc(CN3CCN(C/C=C/c4ccccc4)CC3)c2cc1O,inconclusive: 1.5 nM
4,NC(=O)C1CCN(S(=O)(=O)c2cccc(S(=O)(=O)N3CCCCC3)c2)CC1,inconclusive: 1.3 nM
5,Cc1ccnc(N2CCC(C(=O)Nc3ccc4c(c3)CCC4)CC2)n1,inconclusive: 1.2 nM
6,CCOC(=O)c1sc(NCc2ccco2)c(-c2nc3ccccc3s2)c1N,inconclusive: 1.4 nM
7,O=C(NC1CCC(C(=O)O)CC1)OCc1ccccc1 (stereo not given),inconclusive: 1.7 nM
8,Cc1ccc(C)n1-n1cnc2sc(-c3ccccc3)cc2c1=O,inconclusive: 1.4 nM
9,Cc1cccc(C)c1NC(=O)Cn1cnc2c(=O)n(C)c(=O)n(C)c21,inconclusive: 1.9 nM
10,CCc1ccc(CCC(=O)O)nc1,inactive
11,O=C(CSC1=NCCN1)c1ccccc1,inconclusive: 2 nM
12,CNS(=O)(=O)c1cccc(C(=O)OCC(=O)Nc2ccccc2OC(F)F)c1,inconclusive: 1.1 nM
13,COc1ccc(Oc2c(C)oc3c(CN(C)C)c(O)ccc3c2=O)cc1,inconclusive: 1.9 nM
14,Cc1ccc2c(n1)sc1c(N)ncnc12,inconclusive: 1.1 nM
15,COc1ccc(-n2c(SCC(=O)N3CCCCC3)nnc2-c2cccnc2)cc1,inconclusive: 2.2 nM
16,COc1cccc(NC(=O)CSc2nc3c(c(-c4ccco4)c2C#N)CCCC3)c1,inconclusive: 1.1 nM
17,O=C(c1csc2ccccc12)n1cccn1,inactive
18,O=C(CSc1nnc(Cc2cccs2)n1Cc1ccco1)Nc1ccc(Cl)cc1Cl,inconclusive: 1.1 nM
19,CC1CC=C2C(C#N)=C(N)C(C#N)(C#N)C(c3cccs3)C2C1 (stereo not given),inactive
20,CCCCCn1c(SCC#N)nc2cc(C(=O)NCC3CCCO3)ccc2c1=O (stereo not given),inconclusive: 1.3 nM
21,Cc1oc2cc3oc(=O)c4c(c3cc2c1C)CCC4,inconclusive: 1.1 nM
22,O=c1cc(-c2ccccc2)nc2n1Cc1ccccc1-2,inconclusive: 2.5 nM
23,O=c1c2ccccc2oc2nc(-c3ccco3)n(CCc3ccccc3)c(=O)c12,inconclusive: 1.4 nM

row,SMILES,max dye-equivalent concentration
1,O=C(O)CC(C(=O)NCc1ccccc1)C1CCCO1 (stereo not given),inconclusive: 1.6 nM
2,NC(N)=NCCCC(=O)O,inconclusive: 1.1 nM
3,Cc1nn(CC(=O)Nc2ccc3c(c2)nc(CN2CCCC2)n3C)c(=O)c2ccccc12,inconclusive: 1.3 nM
4,OC[C@@H]1O[C@@H](n2cnc3c(N[C@@H]4C[C@@H]5CC[C@H]4C5)ncnc32)[C@@H](O)[C@H]1O,inconclusive: 1.5 nM
5,CCOC(=O)N1CC=C2C(C#N)=C(N)C(C#N)(C#N)[C@H](c3ccc(OCC)c(OCC)c3)[C@H]2C1,inactive
6,COc1ccc(-n2c(=O)c(-c3ccc(Cl)cc3)nc3cnc(N4CCOCC4)nc32)cc1,inactive
7,O=C(CCSc1nc(-c2ccco2)cc(C(F)(F)F)n1)N1CCCc2ccccc21,inconclusive: 1.2 nM
8,N[C@@H]1C=CC=C(C(=O)O)C1,inactive
9,C=C(C)C1Cc2c(C)nn(-c3ccccc3)c2C1 (stereo not given),inconclusive: 1.1 nM
10,Cn1cnnc1-c1cccc(NS(=O)(=O)c2ccc(N3CCCC3=O)cc2)c1,inconclusive: 1.2 nM
11,CN1CCc2c(sc3c2C(=O)NC(/C=C/c2ccco2)N3)C1 (stereo not given),inactive
12,COc1ccc(-c2csc(N3CCN(Cc4ccc5c(c4)OCO5)CC3)n2)cc1,inconclusive: 1.6 nM
13,Cc1ccc(N=Cc2nc(-c3ccco3)oc2O)cc1,inconclusive: 2.4 nM
14,CCOc1cc(N2CCOCC2)c(OCC)cc1NC1=NCCCCC1,inconclusive: 1.5 nM
15,COc1ccc2nc(C)cc(N3CC(C)OC(C)C3)c2c1 (stereo not given),inconclusive: 1.8 nM
16,O=C(O)CCCC(=O)Nc1ccc(C(=O)N2CCCCC2)c(Cl)c1,inconclusive: 1.2 nM
17,CCOC(=O)C1CCN(C(=O)C2CCCCC2)CC1,inconclusive: 1.7 nM
18,Nc1nc(SCc2ccc([N+](=O)[O-])cc2)c2ncn([C@@H]3O[C@@H](CO)[C@@H](O)[C@H]3O)c2n1,inconclusive: 1.3 nM
19,CCOC(=O)/C(C(N)=NC)=C(\O)c1ccccc1,inconclusive: 1.2 nM
20,COc1ccccc1-c1nccc(Nc2ccc(F)cc2)n1,inactive
21,CC(C)Cc1nnc(NC(=O)CCC(=O)N2CCOCC2)s1,inconclusive: 1.2 nM
22,COc1ccc(C2NC(c3ccc(OC)c(OC)c3OC)C(C)C(=O)C2C)c(OC)c1OC (stereo not given),inactive
23,O=c1c2ccccc2ncn1C1CCCCC1,inconclusive: 1.7 nM

row,SMILES,max dye-equivalent concentration
1,Cc1nc(N2CCOCC2)c2cc(-c3ccccc3)sc2n1,inconclusive: 1.3 nM
2,c1cc(-c2nc3ccccc3o2)nc(-c2nc3ccccc3o2)c1,inconclusive: 1.4 nM
3,COc1cccc(NC(=O)Cn2c(=O)oc3ccccc32)c1,inconclusive: 1.1 nM
4,O=C(Nc1ccccc1)c1ccc(NCC2CCCO2)c(S(=O)(=O)N2CCOCC2)c1 (stereo not given),inconclusive: 1.3 nM
5,COc1ccc(CNc2ncnc3ccc(-c4ccc(C(=O)N(C)C)cc4)cc23)c(OC)c1,inactive
6,COc1ccc(CN(CCN(C)C)Cc2ccccc2)c(OC)c1,inconclusive: 1.3 nM
7,O=C(c1ncc[nH]1)c1ccco1,inconclusive: 1.2 nM
8,CCCC(c1nnnn1Cc1ccc(OC)cc1)N1CCC(C(N)=O)CC1 (stereo not given),inconclusive: 1.7 nM
9,CC(C)(C)OC(=O)N1CCC(c2c(C(=O)O)cnn2-c2ccccc2)CC1,inconclusive: 1.8 nM
10,CCOC(=O)c1c2n(c3ccc(O)cc13)CCC2,inconclusive: 1.3 nM
11,Cc1ccc(S(=O)(=O)NCC(c2ccccc2)N2CCN(CCC#N)CC2)cc1 (stereo not given),inconclusive: 1.3 nM
12,CCOC(=O)N1CCN(C(=O)CCSc2ccc(C)cc2)CC1,inconclusive: 1.4 nM
13,CC(=O)Nc1ccc(S(=O)(=O)Nc2nc3ccccc3nc2Sc2nncn2C)cc1,inactive
14,Cn1c(CN2CCCC2)nc2cc(NC(=O)c3ccco3)ccc21,inconclusive: 1.2 nM
15,CCC1CCCCN1S(=O)(=O)c1ccc(C(=O)Nc2nnc(-c3cccs3)o2)cc1 (stereo not given),inconclusive: 1.1 nM
16,Cc1nnc(SCc2ccc(CC(=O)O)cc2)o1,inconclusive: 1.4 nM
17,CCNc1c2c3c(cccc3n(C)c1=O)C(=O)c1ccccc1-2,inconclusive: 1.6 nM
18,COC(=O)C1=C(N)Oc2cc(C)n(CCN3CCOCC3)c(=O)c2C1c1cccnc1 (stereo not given),inconclusive: 1.6 nM
19,CCOc1ccccc1-c1nnc(SCC(=O)NC2CC3CCC2C3)n1CC (stereo not given),inconclusive: 1.1 nM
20,CCn1c(CNc2ccc(F)cc2)nnc1SCC(=O)OC1CCCCC1,inconclusive: 1.1 nM
21,CC1Cc2ccccc2N1S(=O)(=O)c1cccc(C(=O)NC2CC2)c1 (stereo not given),inconclusive: 1.3 nM
22,Cc1ccc(N(CC2=NCCN2)c2cccc(O)c2)cc1,inconclusive: 1.5 nM
23,CCCSc1nnc(NC(=O)Nc2ccc(F)cc2)s1,inconclusive: 1.1 nM

# 6 entries from above, arranged by molar mass, low to high.
row,SMILES,max dye-equivalent concentration
2,NC(N)=NCCCC(=O)O,inconclusive: 1.1 nM
14,Cn1c(CN2CCCC2)nc2cc(NC(=O)c3ccco3)ccc21,inconclusive: 1.2 nM
19,CCOc1ccccc1-c1nnc(SCC(=O)NC2CC3CCC2C3)n1CC (stereo not given),inconclusive: 1.1 nM
18,COC(=O)C1=C(N)Oc2cc(C)n(CCN3CCOCC3)c(=O)c2C1c1cccnc1 (stereo not given),inconclusive: 1.6 nM
3,Cc1nn(CC(=O)Nc2ccc3c(c2)nc(CN2CCCC2)n3C)c(=O)c2ccccc12,inconclusive: 1.3 nM
7,O=C(CCSc1nc(-c2ccco2)cc(C(F)(F)F)n1)N1CCCc2ccccc21,inconclusive: 1.2 nM

# The results go on.

row,SMILES,max dye-equivalent concentration
1,COc1ccc(-c2nc(SC)n(C(=O)c3ccco3)n2)cc1,inconclusive: 1.1 nM
2,Nc1c(C(=O)OCC2CCCO2)c2nc3ccccc3nc2n1C1CCCC1 (stereo not given),inconclusive: 1.3 nM
3,Cc1csc(SC(C)C(=O)Nc2ccc(S(=O)(=O)N3CCCC3)cc2)n1 (stereo not given),inactive
4,CCOC(=O)c1ccc(NC(=O)CSc2nnc(COc3ccccc3OC)n2CC)cc1,inconclusive: 1.3 nM
5,CCCn1c(=N)n(CCOc2ccc(OC)cc2)c2ccccc21,inconclusive: 1.2 nM
6,Cn1c(=O)c2nnn(/N=C(\c3ccccc3)C3CC3)c2n(C)c1=O,inconclusive: 1.1 nM
7,CCc1ccc(OCC(=O)N(C)C)c(Br)c1,inconclusive: 1.2 nM
8,COc1cc(OC)cc(-c2nnc(SCC(=O)N3CCCc4ccccc43)o2)c1,inconclusive: 1.4 nM
9,C=CCn1c(SCC(=O)NC23CC4CC(CC(C4)C2)C3)nc(O)cc1=O,inconclusive: 1.2 nM
10,O[C@@H]1CC[C@H]2Cc3ccccc3N=C21,inactive
11,Oc1c(C(Nc2nc3ccccc3s2)c2ccco2)ccc2cccnc12 (stereo not given),inconclusive: 1.7 nM
12,O=C(CN1CCCc2ccccc21)NCc1ccc2c(c1)OCO2,inconclusive: 1.4 nM
13,C=CCn1c(C)cc(C(=O)CN2C(=O)c3ccccc3C2=O)c1C,inconclusive: 1.9 nM
14,O=C(O)CCSc1nc2ccccc2s1,inconclusive: 1.5 nM
15,Cc1cc(NC(=O)CSc2ccc3nnc(-c4cccc(F)c4)n3n2)no1,inconclusive: 1.7 nM
16,CC(=O)c1c(C)nn(C(C)CC(=O)O)c1C (stereo not given),inconclusive: 1.7 nM
17,COc1ccccc1-c1nnc2sc(COc3ccc(Cl)cc3Cl)nn12,inconclusive: 1.1 nM
18,Cc1cccc(OCC(=O)NCC(=O)n2nc(C)cc2C)c1,inactive
19,O=[n+]1c2c(n([O-])c3c1CCC3)CCCC2,inconclusive: 1.5 nM
20,COc1ccc(N2CCN(C(CNS(=O)(=O)c3cccs3)c3cccnc3)CC2)cc1 (stereo not given),inconclusive: 1.1 nM
21,COc1ccc(N(CC(=O)NCc2ccco2)S(C)(=O)=O)cc1,inactive
